Data as given in PubChem BioAssay AID1159584 (Peter MacCallum Cancer Centre, 2016)
Screen: 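Genes whose loss is lethal only together with E-cadherin loss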 (primary screen). Cells: human MCF10A breast epithelial cells, parental and CDH1-null. Knock-down reagent: siRNA against human genes. Detection: 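Cell viability by CellTiter-Glo ATP luminescence, each line scaled to the mean of mock wells across plates, then CDH1-null over parental ratio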. Scale: CDH1-null / parental viability ratio: higher = CDH1-null cells survive relatively better than parental; CDH1-null viability vs mock: higher = more viable CDH1-null cells; parental viability vs mock: higher = more viable parental cells.
The deposit covers about 18,000 reagents; below is a part drawn at random. Not given: the amount of reagent, the time to read-out.

gene,PubChem SID,CDH1-null / parental viability ratio,CDH1-null viability vs mock (fraction of mock),parental viability vs mock (fraction of mock)
LSM14A,SID134318116,0.88,0.42,0.48
ELK4,SID134314888,0.98,0.86,0.88
KRT31,SID134315657,1.13,0.76,0.67
TRIM3,SID134312057,1.03,0.93,0.9
ANG,SID152154149,1.18,1.04,0.88
COLEC11,SID134318436,1.31,0.42,0.32
ATP2C1,SID134311538,0.91,0.8,0.88
RAB35,SID134314496,0.71,0.58,0.82
AMPD3,SID152154237,0.89,0.94,1.06
DFFB,SID152156608,1.16,1.02,0.88
SHOC1,SID152149123,1.13,0.98,0.87
CENPL,SID152147218,1.11,0.88,0.79
AP1B1,SID134315557,1.25,0.96,0.77
FAM153B,SID135625431,1.19,0.92,0.77
ATP11C,SID152148814,1,0.9,0.9
MON2,SID135624622,0.9,0.84,0.93
DCAKD,SID134311980,0.9,0.54,0.6
AOPEP,SID135621089,1.19,1.02,0.86
CACNB2,SID135621635,1.26,1.08,0.86
RAB38,SID134314706,0.82,0.41,0.5
NANP,SID134312342,1.53,1.38,0.9
FAM193A,SID152151700,1.13,0.8,0.71
CNOT9,SID134323725,1.01,0.76,0.75
ZNF324,SID135621280,1.52,0.44,0.29
NTNG1,SID152153652,0.86,0.64,0.74
CHD1L,SID135622725,1,1.05,1.05
DNAJC9,SID134321774,0.87,0.48,0.55
PCDHGA2,SID135622494,1.21,0.94,0.78
OR1F1,SID152155419,0.97,0.58,0.6
GNA12,SID134313308,1.39,0.89,0.64
PELI3,SID135622980,0.99,0.79,0.8
AGBL2,SID134317186,1.21,1.02,0.84
PWWP3A,SID134322896,0.96,0.82,0.85
SLC25A32,SID134312404,1.1,1.01,0.92
PTS,SID135621936,0.9,0.92,1.02
C15orf40,SID134320276,1.18,0.9,0.76
SMAD6,SID152148499,0.98,0.9,0.92
OLIG3,SID134313839,0.82,0.74,0.9
RNPS1,SID134316579,0.81,0.26,0.32
DEPDC7,SID152155510,0.8,0.8,1
CD40LG,SID135622033,0.96,0.77,0.8
FAU,SID152149556,1.29,0.44,0.34
CA5A,SID134313802,0.97,0.72,0.74
TTI2,SID135622772,1.12,0.96,0.86
CREBL2,SID134315595,0.95,0.86,0.91
MYL7,SID152150766,1.38,0.8,0.58
BRCA2,SID152148958,1.24,1.04,0.84
ZBP1,SID134318763,0.96,0.71,0.74
ADAM28,SID152148150,1.05,0.8,0.76
NEK5,SID135624240,0.99,0.99,1
TAPT1,SID152155465,1.12,0.36,0.32
ISX,SID152147984,1.1,0.74,0.67
ITPR1,SID135621160,1.19,0.86,0.72
PBK,SID56479058,1.11,1.08,0.97
NOTCH2NLA,SID152154691,1.25,0.7,0.56
IMPACT,SID152151589,0.44,0.22,0.5
MYMK,SID135624820,1.12,0.94,0.84
SPATA19,SID134321750,0.83,0.62,0.75
TAX1BP1,SID152153085,1.03,0.68,0.66
FLOT2,SID152147354,0.98,0.65,0.66
POLQ,SID152154453,1.03,1.08,1.05
EXTL1,SID152148088,0.95,0.84,0.88
TNFAIP6,SID135622308,1.03,0.66,0.64
TAFA1,SID135625159,0.96,1,1.04
SLC12A1,SID152147564,1.11,0.82,0.74
TPMT,SID152153940,0.96,0.94,0.98
MUC15,SID134319647,0.7,0.49,0.7
OR52N2,SID152154706,0.91,0.78,0.86

Part of the list above, reformatted:
AOPEP [SID135621089]
- CDH1-null / parental viability ratio: 1.19
- CDH1-null viability vs mock (fraction of mock): 1.02
- parental viability vs mock (fraction of mock): 0.86

CACNB2 [SID135621635]
- CDH1-null / parental viability ratio: 1.26
- CDH1-null viability vs mock (fraction of mock): 1.08
- parental viability vs mock (fraction of mock): 0.86

RAB38 [SID134314706]
- CDH1-null / parental viability ratio: 0.82
- CDH1-null viability vs mock (fraction of mock): 0.41
- parental viability vs mock (fraction of mock): 0.5

NANP [SID134312342]
- CDH1-null / parental viability ratio: 1.53
- CDH1-null viability vs mock (fraction of mock): 1.38
- parental viability vs mock (fraction of mock): 0.9
